Data from the supplement of paper PMC10849652.
The list shows a part of the results.

Sequences of proteins named here, by UniProt entry; tags and fusion partners are left off. A change or cut given only in a name is not applied to a line headed by its entry.
UniProt Q9H0E9, whole entry, looked up: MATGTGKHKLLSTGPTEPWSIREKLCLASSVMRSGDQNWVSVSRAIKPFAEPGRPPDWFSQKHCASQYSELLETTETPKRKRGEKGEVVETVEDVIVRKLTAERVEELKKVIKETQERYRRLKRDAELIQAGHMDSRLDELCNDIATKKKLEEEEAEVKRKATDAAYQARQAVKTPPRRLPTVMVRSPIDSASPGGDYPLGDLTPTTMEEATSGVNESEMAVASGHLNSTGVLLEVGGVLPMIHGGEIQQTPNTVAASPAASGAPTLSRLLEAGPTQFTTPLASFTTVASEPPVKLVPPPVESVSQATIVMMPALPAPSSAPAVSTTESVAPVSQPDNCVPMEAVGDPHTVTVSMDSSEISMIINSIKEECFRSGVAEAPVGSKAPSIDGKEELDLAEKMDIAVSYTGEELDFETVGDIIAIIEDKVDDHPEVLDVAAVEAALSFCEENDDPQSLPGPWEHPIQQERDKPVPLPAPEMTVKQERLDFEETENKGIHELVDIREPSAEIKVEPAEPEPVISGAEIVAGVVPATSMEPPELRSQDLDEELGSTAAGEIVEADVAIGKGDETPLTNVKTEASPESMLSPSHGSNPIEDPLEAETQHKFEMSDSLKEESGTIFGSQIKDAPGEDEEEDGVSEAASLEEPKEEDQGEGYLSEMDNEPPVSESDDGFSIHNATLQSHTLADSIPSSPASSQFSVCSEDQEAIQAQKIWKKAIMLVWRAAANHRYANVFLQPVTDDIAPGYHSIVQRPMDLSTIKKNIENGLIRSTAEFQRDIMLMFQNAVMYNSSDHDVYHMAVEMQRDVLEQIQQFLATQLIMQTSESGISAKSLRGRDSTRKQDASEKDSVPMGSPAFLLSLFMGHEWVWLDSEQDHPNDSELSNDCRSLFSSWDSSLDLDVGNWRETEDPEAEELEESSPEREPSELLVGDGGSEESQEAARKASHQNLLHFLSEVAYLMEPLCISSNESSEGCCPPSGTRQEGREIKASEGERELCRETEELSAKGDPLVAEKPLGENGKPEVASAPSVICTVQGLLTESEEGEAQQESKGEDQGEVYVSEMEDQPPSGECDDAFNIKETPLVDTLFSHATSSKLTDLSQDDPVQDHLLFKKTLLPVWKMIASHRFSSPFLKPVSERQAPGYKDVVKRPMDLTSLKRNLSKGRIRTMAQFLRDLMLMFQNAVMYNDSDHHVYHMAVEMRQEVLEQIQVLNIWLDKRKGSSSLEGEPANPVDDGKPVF
UniProt O75531: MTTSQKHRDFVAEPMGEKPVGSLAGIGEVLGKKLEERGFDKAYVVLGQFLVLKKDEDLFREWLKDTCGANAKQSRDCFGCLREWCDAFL
UniProt O15382: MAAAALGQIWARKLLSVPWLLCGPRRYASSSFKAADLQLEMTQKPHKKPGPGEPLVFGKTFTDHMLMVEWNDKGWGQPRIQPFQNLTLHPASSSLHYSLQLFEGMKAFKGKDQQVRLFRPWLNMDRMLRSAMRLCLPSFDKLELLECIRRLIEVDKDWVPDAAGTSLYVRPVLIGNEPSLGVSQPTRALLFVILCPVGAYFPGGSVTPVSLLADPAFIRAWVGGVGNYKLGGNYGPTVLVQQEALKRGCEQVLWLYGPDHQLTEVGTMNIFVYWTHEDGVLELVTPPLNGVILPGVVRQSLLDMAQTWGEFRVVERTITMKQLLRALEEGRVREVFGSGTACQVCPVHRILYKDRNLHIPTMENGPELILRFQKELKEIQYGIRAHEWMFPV
UniProt P55957: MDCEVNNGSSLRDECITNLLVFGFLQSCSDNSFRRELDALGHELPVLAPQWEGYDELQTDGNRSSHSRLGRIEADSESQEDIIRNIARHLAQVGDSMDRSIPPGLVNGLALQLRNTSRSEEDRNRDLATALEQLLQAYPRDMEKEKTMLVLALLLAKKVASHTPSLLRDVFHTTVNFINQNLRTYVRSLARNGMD
UniProt Q9NYM9: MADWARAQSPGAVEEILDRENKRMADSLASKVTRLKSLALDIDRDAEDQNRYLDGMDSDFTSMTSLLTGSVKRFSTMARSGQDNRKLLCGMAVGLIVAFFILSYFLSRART
UniProt Q12983, whole entry, looked up: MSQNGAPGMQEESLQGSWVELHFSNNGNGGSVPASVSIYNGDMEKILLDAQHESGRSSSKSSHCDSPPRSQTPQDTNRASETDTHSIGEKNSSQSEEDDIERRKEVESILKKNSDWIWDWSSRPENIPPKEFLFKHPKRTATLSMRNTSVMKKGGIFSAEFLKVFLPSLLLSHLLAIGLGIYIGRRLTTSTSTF
UniProt P35613: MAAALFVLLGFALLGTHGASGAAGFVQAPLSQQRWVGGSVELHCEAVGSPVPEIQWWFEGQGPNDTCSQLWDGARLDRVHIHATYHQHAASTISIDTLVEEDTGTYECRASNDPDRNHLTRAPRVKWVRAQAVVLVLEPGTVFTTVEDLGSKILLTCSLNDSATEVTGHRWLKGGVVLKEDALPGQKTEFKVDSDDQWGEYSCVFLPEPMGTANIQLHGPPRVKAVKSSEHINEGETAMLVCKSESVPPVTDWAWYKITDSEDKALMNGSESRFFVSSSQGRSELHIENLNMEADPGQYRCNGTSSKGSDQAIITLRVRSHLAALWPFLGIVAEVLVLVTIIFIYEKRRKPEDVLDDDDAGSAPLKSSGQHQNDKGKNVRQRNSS
UniProt Q8WUW1: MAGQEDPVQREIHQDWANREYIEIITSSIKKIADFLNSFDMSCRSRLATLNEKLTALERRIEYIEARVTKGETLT
UniProt Q9UIG0: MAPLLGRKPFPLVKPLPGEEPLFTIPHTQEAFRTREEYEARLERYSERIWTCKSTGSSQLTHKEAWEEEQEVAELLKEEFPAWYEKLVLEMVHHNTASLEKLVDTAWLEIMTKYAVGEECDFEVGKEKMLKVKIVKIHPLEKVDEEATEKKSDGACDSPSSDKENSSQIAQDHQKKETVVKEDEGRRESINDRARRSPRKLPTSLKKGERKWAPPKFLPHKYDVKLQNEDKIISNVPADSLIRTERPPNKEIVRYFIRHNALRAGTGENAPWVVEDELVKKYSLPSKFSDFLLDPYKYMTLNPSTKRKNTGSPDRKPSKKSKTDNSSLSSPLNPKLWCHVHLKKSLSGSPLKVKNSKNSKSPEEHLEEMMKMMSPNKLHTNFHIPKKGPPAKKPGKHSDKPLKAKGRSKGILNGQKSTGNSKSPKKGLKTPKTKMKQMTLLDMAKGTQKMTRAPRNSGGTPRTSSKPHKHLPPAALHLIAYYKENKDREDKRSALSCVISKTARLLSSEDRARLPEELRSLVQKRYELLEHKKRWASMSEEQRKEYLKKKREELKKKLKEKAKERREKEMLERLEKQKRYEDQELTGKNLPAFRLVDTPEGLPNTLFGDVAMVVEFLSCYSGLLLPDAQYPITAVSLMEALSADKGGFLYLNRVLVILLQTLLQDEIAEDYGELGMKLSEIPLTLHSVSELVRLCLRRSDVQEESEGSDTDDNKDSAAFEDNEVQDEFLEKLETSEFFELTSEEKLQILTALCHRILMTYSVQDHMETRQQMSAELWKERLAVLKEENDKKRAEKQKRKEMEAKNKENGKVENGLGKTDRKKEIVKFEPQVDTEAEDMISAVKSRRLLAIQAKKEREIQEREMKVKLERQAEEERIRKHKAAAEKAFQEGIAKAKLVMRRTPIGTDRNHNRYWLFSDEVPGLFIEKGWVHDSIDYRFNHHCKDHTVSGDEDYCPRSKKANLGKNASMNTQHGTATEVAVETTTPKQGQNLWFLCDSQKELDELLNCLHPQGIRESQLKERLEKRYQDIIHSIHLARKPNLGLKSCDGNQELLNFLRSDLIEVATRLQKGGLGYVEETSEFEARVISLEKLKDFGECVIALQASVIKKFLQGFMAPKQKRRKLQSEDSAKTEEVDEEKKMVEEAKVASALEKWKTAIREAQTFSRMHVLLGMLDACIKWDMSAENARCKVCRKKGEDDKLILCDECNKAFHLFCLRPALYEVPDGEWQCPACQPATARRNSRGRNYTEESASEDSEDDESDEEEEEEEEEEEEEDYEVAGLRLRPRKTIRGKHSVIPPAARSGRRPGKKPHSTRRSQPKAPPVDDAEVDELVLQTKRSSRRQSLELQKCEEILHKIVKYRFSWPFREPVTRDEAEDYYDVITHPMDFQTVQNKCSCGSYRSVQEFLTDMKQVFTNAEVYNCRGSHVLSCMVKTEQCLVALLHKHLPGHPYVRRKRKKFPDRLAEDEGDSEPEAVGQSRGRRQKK
UniProt Q07812, whole entry, looked up: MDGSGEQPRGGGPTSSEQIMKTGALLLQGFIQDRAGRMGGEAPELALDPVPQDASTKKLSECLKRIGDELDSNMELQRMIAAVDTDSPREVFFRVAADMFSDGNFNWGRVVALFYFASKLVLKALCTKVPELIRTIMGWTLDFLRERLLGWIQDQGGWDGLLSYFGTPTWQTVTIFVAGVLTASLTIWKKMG
UniProt O60512: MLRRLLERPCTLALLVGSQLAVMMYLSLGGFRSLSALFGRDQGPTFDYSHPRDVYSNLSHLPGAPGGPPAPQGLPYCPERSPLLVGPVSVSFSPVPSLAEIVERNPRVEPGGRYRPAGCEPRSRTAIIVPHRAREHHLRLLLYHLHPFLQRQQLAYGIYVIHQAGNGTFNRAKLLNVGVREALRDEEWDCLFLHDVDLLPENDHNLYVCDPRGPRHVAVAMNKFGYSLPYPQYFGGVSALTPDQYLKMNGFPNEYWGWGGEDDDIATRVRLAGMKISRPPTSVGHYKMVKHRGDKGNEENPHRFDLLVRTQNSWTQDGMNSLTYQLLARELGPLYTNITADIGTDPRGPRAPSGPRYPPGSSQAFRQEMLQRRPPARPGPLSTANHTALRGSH
UniProt O95817, whole entry, looked up: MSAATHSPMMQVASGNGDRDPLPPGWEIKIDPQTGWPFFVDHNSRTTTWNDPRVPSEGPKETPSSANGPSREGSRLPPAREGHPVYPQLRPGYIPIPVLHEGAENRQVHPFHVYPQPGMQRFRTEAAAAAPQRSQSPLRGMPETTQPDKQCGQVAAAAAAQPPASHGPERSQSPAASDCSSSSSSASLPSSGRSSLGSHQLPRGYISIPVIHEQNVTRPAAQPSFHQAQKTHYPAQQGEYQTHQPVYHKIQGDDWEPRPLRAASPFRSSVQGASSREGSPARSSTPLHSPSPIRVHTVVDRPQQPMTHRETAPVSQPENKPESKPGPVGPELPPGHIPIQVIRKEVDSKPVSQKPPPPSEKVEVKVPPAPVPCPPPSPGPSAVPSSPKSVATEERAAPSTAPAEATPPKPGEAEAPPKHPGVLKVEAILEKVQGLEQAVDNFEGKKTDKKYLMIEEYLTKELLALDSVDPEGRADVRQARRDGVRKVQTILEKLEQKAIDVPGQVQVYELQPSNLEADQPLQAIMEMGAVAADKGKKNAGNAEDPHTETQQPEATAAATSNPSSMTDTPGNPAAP
UniProt P30043: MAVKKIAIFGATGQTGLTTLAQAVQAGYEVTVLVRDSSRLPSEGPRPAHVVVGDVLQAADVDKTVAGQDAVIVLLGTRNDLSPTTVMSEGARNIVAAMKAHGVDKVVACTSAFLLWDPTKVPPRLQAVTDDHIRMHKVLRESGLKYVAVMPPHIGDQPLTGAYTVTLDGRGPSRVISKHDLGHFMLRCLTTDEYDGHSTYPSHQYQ
UniProt Q14457, whole entry, looked up: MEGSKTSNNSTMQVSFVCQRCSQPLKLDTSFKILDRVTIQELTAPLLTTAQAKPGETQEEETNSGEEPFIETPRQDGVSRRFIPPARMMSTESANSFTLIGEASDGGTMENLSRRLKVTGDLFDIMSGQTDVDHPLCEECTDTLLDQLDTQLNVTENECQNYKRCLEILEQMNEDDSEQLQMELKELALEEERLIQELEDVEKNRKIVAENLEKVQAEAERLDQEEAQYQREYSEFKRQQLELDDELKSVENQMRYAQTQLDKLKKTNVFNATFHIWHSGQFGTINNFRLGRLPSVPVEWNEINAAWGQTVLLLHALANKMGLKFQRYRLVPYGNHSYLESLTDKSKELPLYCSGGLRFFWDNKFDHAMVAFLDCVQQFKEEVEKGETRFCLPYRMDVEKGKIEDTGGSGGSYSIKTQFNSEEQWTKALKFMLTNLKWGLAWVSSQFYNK
UniProt Q96GS4: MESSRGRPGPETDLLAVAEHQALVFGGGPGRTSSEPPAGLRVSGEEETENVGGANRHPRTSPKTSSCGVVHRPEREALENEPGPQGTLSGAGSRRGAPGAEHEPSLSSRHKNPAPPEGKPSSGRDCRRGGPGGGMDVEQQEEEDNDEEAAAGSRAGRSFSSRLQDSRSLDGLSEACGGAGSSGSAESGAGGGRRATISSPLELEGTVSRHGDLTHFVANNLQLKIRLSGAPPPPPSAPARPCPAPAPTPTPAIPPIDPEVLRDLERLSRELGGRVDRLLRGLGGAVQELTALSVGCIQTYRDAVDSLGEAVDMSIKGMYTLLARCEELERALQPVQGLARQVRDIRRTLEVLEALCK

Columns and labels:
Assay in all cases: log2 fold change, soluble protein after heating vs DMSO (PISA); higher = thermal stabilisation; K562 lysate, 10 uM; active = over 0.2 and 3.5 SD of the protein, either way, in both replicates (recomputed)
nilotinib = compound: Cc1cn(-c2cc(NC(=O)c3ccc(C)c(Nc4nccc(-c5cccnc5)n4)c3)cc(C(F)(F)F)c2)cn1 [nilotinib]
Summary of the method: (§1)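 To prepare the extract, K562 pellets were dounce-homogenised in PBS pH 7.4 with 1 mM MgCl2, giving crude material at 1 mg/mL protein. This was treated with 10 μM compound for 30 min, then heated in aliquots for 3 min over 48°C-58°C before pooling and addition of NP-40 to 0.5% at 4°C. Centrifugation at 21,000xg for 90 min left soluble protein in the supernatant, which TMTpro 16plex LC-MS/MS quantified with equalised channel sums. Results are log-two fold changes in thermal stability compared with solvent controls, from duplicates.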

[1] = compound: Cc1nc(Nc2n[nH]c3c2CN(C(=O)N[C@H](CN(C)C)c2ccccc2)C3(C)C)c2sccc2n1
Summary of the method: as §1

dasatinib = compound: Cc1nc(Nc2ncc(C(=O)Nc3c(C)cccc3Cl)s2)cc(N2CCN(CCO)CC2)n1 [dasatinib]
Summary of the method: as §1

[2] = compound: Cc1ncc(-c2ccnc(Nc3ccc(S(C)(=O)=O)cc3)n2)n1C(C)C
Summary of the method: as §1

[3] = compound: Cn1cc(-c2ccc3c(c2)CCN3C(=O)Cc2cccc(C(F)(F)F)c2)c2c(N)ncnc21
Summary of the method: as §1

quisinostat = compound: Cn1cc(CNCC2CCN(c3ncc(C(=O)NO)cn3)CC2)c2ccccc21 [quisinostat]
Summary of the method: as §1

tipifarnib = compound: Cn1cncc1[C@@](N)(c1ccc(Cl)cc1)c1ccc2c(c1)c(-c1cccc(Cl)c1)cc(=O)n2C [tipifarnib]
Summary of the method: as §1

[4] = compound: NC(=O)Nc1cc(-c2cccc(F)c2)sc1C(=O)N[C@H]1CCCNC1
Summary of the method: as §1

[5] = compound: NC(=O)c1cnc(N[C@@H]2CCCC[C@@H]2N)nc1Nc1cccc(-n2nccn2)c1
Summary of the method: as §1

[6] = compound: NC1(c2ccc(-c3nc4ccn5c(=O)[nH]nc5c4cc3-c3ccccc3)cc2)CCC1
Summary of the method: as §1

Measured: log2 fold change

BRD8 isoform 2 (UniProt Q9H0E9)
inactive: nilotinib -0.035 | [1] -0.025 | dasatinib 0.03 | [2] 0.025 | [3] 0.035 | quisinostat -0.091 | tipifarnib 0.015 | [4] 0 | [5] 0.009 | [6] 0.005

BANF1 (UniProt O75531)
inactive: nilotinib 0.053 | [1] -0.088 | dasatinib -0.004 | [2] 0.043 | [3] -0.031 | quisinostat -0.013 | tipifarnib -0.007 | [4] -0.04 | [5] 0.018 | [6] -0.016

BCAT2 (UniProt O15382)
inactive: nilotinib 0.004 | [1] 0.033 | dasatinib 0.013 | [2] 0.009 | [3] -0.013 | quisinostat 0.009 | tipifarnib -0.012 | [4] 0.013 | [5] -0.015 | [6] 0.014

BID isoform 2 (UniProt P55957)
inactive: nilotinib 0.008 | [1] -0.008 | dasatinib -0.003 | [2] 0.002 | [3] 0.017 | quisinostat -0.058 | tipifarnib 0.065 | [4] -0.01 | [5] -0.052 | [6] -0.016

BCCIP isoform 2 (UniProt Q9P287)
inactive: nilotinib -0.024 | [1] 0.012 | dasatinib 0.014 | [2] 0.013 | [3] 0.02 | quisinostat 0.018 | tipifarnib -0.011 | [4] -0.01 | [5] -0.016 | [6] 0.055

BIRC6 (UniProt Q9NR09)
inactive: nilotinib -0.004 | [1] 0.005 | dasatinib -0.002 | [2] 0.012 | [3] 0.01 | quisinostat 0.009 | tipifarnib 0.012 | [4] 0.014 | [5] 0 | [6] 0.018

BET1L (UniProt Q9NYM9)
inactive: nilotinib 0.056 | [1] -0.055 | dasatinib 0.023 | [2] -0.012 | [3] 0.028 | quisinostat 0.146 | tipifarnib 0.137 | [4] -0.073 | [5] -0.006 | [6] 0.026

BNIP3 (UniProt Q12983)
inactive: nilotinib 0.037 | [1] -0.077 | dasatinib 0.014 | [2] -0.002 | [3] -0.02 | quisinostat -0.219 | tipifarnib 0.05 | [4] 0.061 | [5] -0.018 | [6] -0.007

BSG (UniProt P35613)
inactive: nilotinib -0.036 | [1] 0.045 | dasatinib 0.043 | [2] -0.009 | [3] 0.007 | quisinostat 0.003 | tipifarnib 0.042 | [4] -0.027 | [5] -0.025 | [6] -0.027

BNIP2 (UniProt J3KN59)
inactive: nilotinib 0.108 | [1] -0.013 | dasatinib 0.01 | [2] 0.172 | [3] 0.001 | quisinostat 0.053 | tipifarnib 0.027 | [4] 0.014 | [5] -0.03 | [6] 0.027

BRK1 isoform 2 (UniProt Q8WUW1)
inactive: nilotinib 0.048 | [1] 0.003 | dasatinib 0.024 | [2] 0.131 | [3] 0.001 | quisinostat 0.187 | tipifarnib 0.006 | [4] -0.051 | [5] -0.008 | [6] 0.023

BCL2L1 (UniProt Q07817)
inactive: nilotinib 0.013 | [1] 0.017 | dasatinib -0.003 | [2] 0.028 | [3] 0.01 | quisinostat 0.028 | tipifarnib 0.006 | [4] -0.053 | [5] 0.022 | [6] 0.023

BAZ1B (UniProt Q9UIG0)
inactive: nilotinib 0.063 | [1] -0.008 | dasatinib -0.084 | [2] 0.003 | [3] -0.022 | quisinostat -0.039 | tipifarnib -0.002 | [4] 0.002 | [5] -0.003 | [6] 0.024

BAX isoform 2 (UniProt Q07812)
inactive: nilotinib -0.065 | [1] -0.03 | dasatinib 0.012 | [2] 0.034 | [3] 0.01 | quisinostat -0.014 | tipifarnib 0.013 | [4] 0.003 | [5] -0.018 | [6] -0.005

B4GALT3 (UniProt O60512)
inactive: nilotinib 0.055 | [1] 0.009 | dasatinib 0.029 | [2] 0.009 | [3] 0.043 | quisinostat 0.099 | tipifarnib -0.082 | [4] -0.044 | [5] 0.047 | [6] -0.003

BRIP1 (UniProt Q9BX63)
inactive: nilotinib 0.169 | [1] 0.073 | dasatinib 0.13 | [2] -0.212 | [3] 0.15 | quisinostat -0.151 | tipifarnib -0.105 | [4] -0.057 | [5] -0.013 | [6] -0.038

BSDC1 (UniProt Q9NW68)
inactive: nilotinib 0.016 | [1] -0.009 | dasatinib 0.018 | [2] 0.027 | [3] -0.018 | quisinostat -0.024 | tipifarnib -0.093 | [4] 0.003 | [5] -0.023 | [6] 0.016

BAG3 (UniProt O95817)
inactive: nilotinib -0.013 | [1] 0.013 | dasatinib 0.021 | [2] -0.011 | [3] -0.01 | quisinostat 0.019 | tipifarnib 0.003 | [4] -0.004 | [5] -0.022 | [6] 0.06

BTAF1 (UniProt O14981)
inactive: nilotinib -0.005 | [1] 0.018 | dasatinib -0.028 | [2] 0.007 | [3] 0.008 | quisinostat -0.015 | tipifarnib -0.011 | [4] 0.033 | [5] 0.016 | [6] 0.004

BAHCC1 (UniProt Q9P281)
inactive: nilotinib -0.191 | [1] 0.019 | dasatinib -0.144 | [2] -0.141 | [3] -0.039 | quisinostat -0.328 | tipifarnib 0.031 | [4] -0.053 | [5] 0.021 | [6] 0.07

BLVRB (UniProt P30043)
inactive: nilotinib 0.032 | [1] -0.002 | dasatinib -0.034 | [2] 0.002 | [3] 0 | quisinostat -0.022 | tipifarnib -0.006 | [4] 0.025 | [5] 0.017 | [6] -0.047

BPGM (UniProt P07738)
inactive: nilotinib 0.024 | [1] -0.003 | dasatinib 0.066 | [2] 0.048 | [3] -0.079 | quisinostat -0.006 | tipifarnib 0.002 | [4] -0.042 | [5] 0.037 | [6] -0.025

BMS1 (UniProt Q14692)
inactive: nilotinib 0.024 | [1] 0.024 | dasatinib -0.02 | [2] -0.045 | [3] -0.01 | quisinostat -0.097 | tipifarnib 0 | [4] 0.006 | [5] 0.015 | [6] -0.019

BCL7C isoform 2 (UniProt Q8WUZ0)
inactive: nilotinib 0 | [1] -0.119 | dasatinib -0.01 | [2] -0.091 | [3] 0.076 | quisinostat 0.083 | tipifarnib 0.008 | [4] 0.017 | [5] -0.012 | [6] 0.059

BECN1 (UniProt Q14457)
inactive: nilotinib -0.025 | [1] -0.007 | dasatinib -0.016 | [2] 0.026 | [3] 0.068 | quisinostat -0.004 | tipifarnib -0.018 | [4] 0.063 | [5] 0.031 | [6] 0.082

BORCS6 (UniProt Q96GS4)
inactive: nilotinib -0.004 | [1] 0.041 | dasatinib -0.01 | [2] -0.039 | [3] 0.007 | quisinostat -0.058 | tipifarnib -0.023 | [4] 0.027 | [5] -0.017 | [6] 0.015

BABAM2 (UniProt Q9NXR7)
inactive: nilotinib 0.015 | [1] -0.018 | dasatinib -0.009 | [2] -0.018 | [3] -0.026 | quisinostat 0.008 | tipifarnib -0.014 | [4] 0.025 | [5] 0.002 | [6] 0.004

Reprinted at random: 2 entries already listed, in no set order.
BABAM2 (UniProt Q9NXR7)
inactive: nilotinib 0.015 | [1] -0.018 | dasatinib -0.009 | [2] -0.018 | [3] -0.026 | quisinostat 0.008 | tipifarnib -0.014 | [4] 0.025 | [5] 0.002 | [6] 0.004

BORCS6 (UniProt Q96GS4)
inactive: nilotinib -0.004 | [1] 0.041 | dasatinib -0.01 | [2] -0.039 | [3] 0.007 | quisinostat -0.058 | tipifarnib -0.023 | [4] 0.027 | [5] -0.017 | [6] 0.015
